Article PMC6785266
These are yes or no findings as the source states them, for the method shown. In cells and extracts the contact can be indirect. Binding can be weak; no strength is given.

Protein sequences, listed by entry. Tags and fused reporters are not part of them. Lines headed by an entry give the natural chain unless they say otherwise; changes in a name come on top.
UniProt P23359: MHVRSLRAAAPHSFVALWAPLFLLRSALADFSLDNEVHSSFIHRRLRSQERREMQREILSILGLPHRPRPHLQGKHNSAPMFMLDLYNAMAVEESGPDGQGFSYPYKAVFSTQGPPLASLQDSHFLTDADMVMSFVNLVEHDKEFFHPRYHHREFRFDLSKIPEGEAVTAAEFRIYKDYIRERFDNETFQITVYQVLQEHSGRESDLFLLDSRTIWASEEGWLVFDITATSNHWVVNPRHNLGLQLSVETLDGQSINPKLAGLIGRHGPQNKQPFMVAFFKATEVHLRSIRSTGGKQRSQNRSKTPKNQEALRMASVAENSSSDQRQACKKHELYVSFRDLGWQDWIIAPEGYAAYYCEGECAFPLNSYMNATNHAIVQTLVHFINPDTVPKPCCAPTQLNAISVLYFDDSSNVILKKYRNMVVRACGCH

Tests used:
[1] = molecular target: BMP7R-GFlag precursor protein (knock-in allele Bmp7^R-GFlag) (mouse); experiment: co-IP; 1 mg E11.5 mouse embryo lysate in IP lysis buffer (150 mM NaCl, 20 mM Tris-Cl pH 7.5, 1 mM EDTA, 1% sodium deoxycholate, 1% NP40); anti-Flag agarose overnight at 4°C; immunoblot for BMP4; wild type littermates as control
[2] = molecular target: BMP7Flag (knock-in allele Bmp7^Flag) (mouse) (UniProt P23359); experiment: as above

B1: cleaved mature BMP4 ligand (endogenous) (ligand, UniProt P21275 293-408)
chain: SPKHHPQRSRKKNKNCRRHSLYVDFSDVGWNDWIVAPPGYQAFYCHGDCPFPLADHLNSTNHAIVQTLVNSVNSSIPKACCVPTELSAISMLYLDEYDKVVLKNYQEMVVEGCGCR
binding [1]: binds
binding [2]: binds
